For two substances, binding results are on record in PMC9586981.

By UniProt entry, the sequences of proteins in these tests, tags left out.
UniProt Q8IYS0: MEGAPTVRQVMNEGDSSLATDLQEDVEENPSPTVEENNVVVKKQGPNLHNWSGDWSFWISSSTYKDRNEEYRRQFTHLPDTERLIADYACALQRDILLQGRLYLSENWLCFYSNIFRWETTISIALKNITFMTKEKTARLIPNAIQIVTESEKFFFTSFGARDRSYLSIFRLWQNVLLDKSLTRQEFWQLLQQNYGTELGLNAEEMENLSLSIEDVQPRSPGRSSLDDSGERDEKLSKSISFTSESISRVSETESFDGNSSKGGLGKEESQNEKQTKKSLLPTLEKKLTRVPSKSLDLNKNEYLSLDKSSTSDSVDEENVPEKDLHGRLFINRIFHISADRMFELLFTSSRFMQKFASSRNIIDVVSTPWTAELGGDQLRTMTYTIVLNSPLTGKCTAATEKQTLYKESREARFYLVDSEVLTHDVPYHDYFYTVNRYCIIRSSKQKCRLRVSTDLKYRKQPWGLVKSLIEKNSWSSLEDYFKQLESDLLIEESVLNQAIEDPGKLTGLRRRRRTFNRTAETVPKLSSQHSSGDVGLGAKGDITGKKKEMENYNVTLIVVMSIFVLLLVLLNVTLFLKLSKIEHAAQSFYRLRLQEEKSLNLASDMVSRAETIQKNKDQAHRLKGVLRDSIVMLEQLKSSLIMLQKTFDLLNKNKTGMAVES
UniProt Q14534: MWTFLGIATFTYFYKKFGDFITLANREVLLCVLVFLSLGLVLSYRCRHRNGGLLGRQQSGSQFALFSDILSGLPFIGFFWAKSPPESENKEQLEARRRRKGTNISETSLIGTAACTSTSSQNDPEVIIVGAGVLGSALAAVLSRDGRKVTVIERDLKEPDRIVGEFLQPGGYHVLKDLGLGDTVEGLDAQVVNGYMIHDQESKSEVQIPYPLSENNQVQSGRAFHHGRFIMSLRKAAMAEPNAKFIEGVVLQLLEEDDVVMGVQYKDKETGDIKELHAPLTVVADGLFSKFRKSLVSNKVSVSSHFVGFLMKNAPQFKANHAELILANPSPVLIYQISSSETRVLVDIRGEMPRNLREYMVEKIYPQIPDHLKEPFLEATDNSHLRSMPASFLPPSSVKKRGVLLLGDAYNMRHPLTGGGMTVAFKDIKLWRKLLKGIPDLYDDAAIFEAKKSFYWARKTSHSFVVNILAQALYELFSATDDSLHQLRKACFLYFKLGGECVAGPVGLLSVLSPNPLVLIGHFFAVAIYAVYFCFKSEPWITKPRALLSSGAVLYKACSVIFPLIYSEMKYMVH
UniProt Q676U5: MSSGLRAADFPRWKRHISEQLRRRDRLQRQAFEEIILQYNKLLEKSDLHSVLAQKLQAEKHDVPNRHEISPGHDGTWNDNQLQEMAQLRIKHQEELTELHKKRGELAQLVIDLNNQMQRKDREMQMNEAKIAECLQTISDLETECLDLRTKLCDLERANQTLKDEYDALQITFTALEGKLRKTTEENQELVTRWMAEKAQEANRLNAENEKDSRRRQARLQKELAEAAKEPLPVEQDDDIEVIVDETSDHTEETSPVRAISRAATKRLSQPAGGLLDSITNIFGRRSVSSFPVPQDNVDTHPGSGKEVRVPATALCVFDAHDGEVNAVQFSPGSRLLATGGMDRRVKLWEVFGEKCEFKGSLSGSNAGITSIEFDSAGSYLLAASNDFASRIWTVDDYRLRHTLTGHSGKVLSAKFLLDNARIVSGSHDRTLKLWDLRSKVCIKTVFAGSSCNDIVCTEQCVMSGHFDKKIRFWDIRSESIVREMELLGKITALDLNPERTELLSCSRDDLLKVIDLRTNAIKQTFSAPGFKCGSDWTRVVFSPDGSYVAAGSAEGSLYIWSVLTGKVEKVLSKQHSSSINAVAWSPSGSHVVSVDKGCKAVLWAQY

This assay has as its target GRAMD1C-EGFP (UniProt Q8IYS0). The assay is described as follows: affinity purification with mass spectrometry; EGFP-tagged bait immunopurified with EGFP-TRAP (Chromotek) from stably transfected U2OS cells lysed in NP-40 lysis buffer (150 mM, 1.0% NP-40, 50 mM Tris-HCl pH 8.0); copurified proteins identified by LC-MS/MS; interactome compared to that of EGFP.

These are yes or no findings as the source states them, for the method shown. In cells and extracts the contact can be indirect. Here binding means that the protein was enriched with, or labelled near, the bait; the list need not be complete. No binding means not detected with the bait.

As for “SQLE (from UniProt Q14534 1-574) (enzyme)”, the binding entry is “binds”. ATG16L1 (from UniProt Q676U5 1-607): the binding result was “no binding”.
